PubChem BioAssay AID493014 (National Center for Advancing Translational Sciences (NCATS), 2011)
Some of the results follow. Shown are side measurements of this screen, not its main read-out; they come without a call. Most of these compounds were active or inconclusive in the main read-out, so they are no random draw. The note in brackets gives the kind of curve behind each potency; many fits are weak.

Test: qHTS Assay to Find Inhibitors of Chronic Active B-Cell Receptor Signaling
Settings: ABC-DLBCL IkBa-CBG/CBR reporter, luminescence ratio (green luciferase fused to IkBa over red control in TMD8 lymphoma cells), 4 h
Method in brief: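 Cell line TMD8 (human ABC DLBCL), stably expressing tet-inducible CBG68-IkBa fusion and CBR; IMDM/0.5% FBS; cpd up to 46 uM; dox induction, 4 h, 37C/5% CO2; dual luminescence; green/red ratio; MG132 control.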

[1] = measured here: CBR red luminescence, cell number
[2] = measured here: IkBa-CBG green luminescence

With `CN(C)CCCNC(=O)/C(=C\c1ccc(-c2cccc([N+](=O)[O-])c2)o1)NC(=O)c1ccccc1` as the compound, how does the AC50 [1] read?
Its AC50 is 14.1 µM [falling, partial curve, poor fit].

With `Cc1cc(C(=O)NNC(=S)NC2CCCCC2)cs1` as the compound, how does the AC50 [1] read?
The AC50 was 10 µM [falling, partial curve, poor fit].

Which AC50 [1] does the source give for `O=C(NCCCN1CCOCC1)C1COc2ccccc2O1` (centres undefined) here?
The AC50 was 6.31 µM [rising, partial curve, poor fit].

For `O=C(CN1CCOCC1)Nc1ccc(Cl)c(Cl)c1`, which AC50 [1] is on record?
Its AC50 is 0.398 µM [rising, full curve, poor fit].

With `COc1ccc2nc(Nc3ccccc3)sc2c1` as the compound, how does the AC50 [1] read?
Its AC50 is 35.5 µM [falling, single point].

Which AC50 [1] does the source give for `Cc1ccc(N2CN=C(c3ccccc3)NC2=S)cc1` here?
Its AC50 is 29.1 µM [falling, single point].

For `COc1ccc(Br)cc1C1Nc2cccc3cccc(c23)N1`, which AC50 [1] is on record?
Its AC50 is 35.5 µM [falling, single point].

For `CCC(=O)Nc1ccccc1C(=O)N1CCCC1`, which AC50 [1] is on record?
Its AC50 is 0.058 µM [rising, full curve, poor fit].

For `CC(C)(C)c1ccc(C(=O)NC(=S)NCc2cccnc2)cc1`, which AC50 [1] is on record?
The AC50 was 29.1 µM [falling, single point].

For `COc1cccc(/C=C2\SC(=S)N(C(C)C(=O)NC3C=CS(=O)(=O)C3)C2=O)c1` (centres undefined), which AC50 [1] is on record?
Its AC50 is 17.8 µM [falling, single point].

Which AC50 [1] does the source give for `CCOc1ccccc1NC(=O)c1nnn(-c2ccc3c(c2)OCCO3)c1N` here?
Its AC50 is 1.58 µM [falling, full curve, poor fit].

Which AC50 [1] does the source give for `Cc1cc(=O)n2[nH]c(N)c(N=Nc3ccccc3F)c2n1` here?
Its AC50 is 10.3 µM [falling, partial curve, poor fit].

For `Cc1ccc(S(=O)(=O)N(CC(=O)N=Nc2c(O)[nH]c3ccccc23)c2ccc(C)c(C)c2)cc1`, which AC50 [2] is on record?
Its AC50 is 20.6 µM [rising, partial curve, poor fit].

With `Nc1nn(-c2ccccc2)c(N)c1N=Nc1cccc(F)c1` as the compound, how does the AC50 [1] read?
The AC50 was 11.2 µM [falling, partial curve].

For `CC(C)(C)c1ccc(OC(=O)c2ccccc2)cc1`, which AC50 [1] is on record?
The AC50 was 31.6 µM [rising, single point].

Which AC50 [1] does the source give for `Cc1ccc(NC(=O)c2cccs2)cc1` here?
The AC50 was 20.6 µM [falling, single point].

With `c1ccc(N2CCN(c3nc4ccccc4[nH]3)CC2)nc1` as the compound, how does the AC50 [1] read?
Its AC50 is 11.2 µM [falling, partial curve, poor fit].

Which AC50 [1] does the source give for `Cn1nnnc1Sc1ncnc2scc(-c3cc4ccccc4o3)c12` here?
Its AC50 is 2.91 µM [falling, full curve].

Which AC50 [1] does the source give for `CCN(CC)C(=O)CSc1nc2ccsc2c(=O)n1Cc1ccccc1Cl` here?
The AC50 was 8.91 µM [falling, partial curve].

For `CC(CN1CCOCC1)OC(=O)/C=C/c1ccccc1` (centres undefined), which AC50 [1] is on record?
Its AC50 is 3.16 µM [rising, full curve, poor fit].

For `COc1ccc(NC(=O)COC(=O)c2ccc(-n3cnnn3)cc2)c([N+](=O)[O-])c1`, which AC50 [1] is on record?
The AC50 was 8.2 µM [rising, partial curve, poor fit].

With `COc1ccc(C(=O)NNC(=O)CCn2nnc(-c3ccc(C)cc3)n2)cc1OC` as the compound, how does the AC50 [1] read?
Its AC50 is 20 µM [falling, partial curve, poor fit].

Which AC50 [1] does the source give for `NC(=O)Nc1ccc(Oc2ncc(C(F)(F)F)cc2Cl)cc1` here?
The AC50 was 20 µM [rising, single point].

With `CCC(=O)OCCNc1nc(-c2ccccc2)nc2ccccc12` as the compound, how does the AC50 [1] read?
Its AC50 is 8.91 µM [falling, partial curve, poor fit].

Which AC50 [1] does the source give for `Cc1cc(C)c2nc(SC(C)C#N)cc(C)c2c1` (centres undefined) here?
The AC50 was 25.9 µM [rising, single point].

With `Oc1ccc(/C(Cc2ccccn2)=N\Nc2ccccc2)c(O)c1` as the compound, how does the AC50 [1] read?
Its AC50 is 6.31 µM [falling, single point].

What does the source list for `CC(C)(C)C(=O)/C(=C/c1ccncc1)n1cncn1`?
AC50 [1]: 6.31 µM [falling, partial curve]; AC50 [2]: 7.94 µM [rising, partial curve, poor fit]

Which AC50 [1] does the source give for `O=C(Nc1ccccc1F)c1ccc(S(=O)(=O)NCC2CCCO2)cc1` (centres undefined) here?
Its AC50 is 15.8 µM [falling, single point].

For `COc1cc2c(cc1OC)/C(=C/C(=O)c1ccc(F)cc1)NCC2`, which AC50 [1] is on record?
The AC50 was 3.98 µM [rising, full curve, poor fit].

Which AC50 [1] does the source give for `CCN1CCN(c2nc(-c3ccccc3)c3ccccc3n2)CC1` here?
Its AC50 is 0.631 µM [falling, full curve, poor fit].

Which AC50 [1] does the source give for `Clc1ccc(CSc2snnc2-c2ccccc2)cc1` here?
Its AC50 is 13 µM [rising, partial curve, poor fit].

For `O=C(CCCc1cccs1)Nc1nc(-c2ccc(F)cc2)cs1`, which AC50 [1] is on record?
Its AC50 is 29.1 µM [rising, single point].

For `CCOC(=O)CSCC(=O)N1N=C(c2cccs2)CC1c1ccc(F)cc1` (centres undefined), which AC50 [1] is on record?
Its AC50 is 23.1 µM [falling, single point].

Which AC50 [1] does the source give for `COc1cccc(C(=O)Nc2cc3c4c(c2)CC(=O)N4CCC3)c1` here?
The AC50 was 11.6 µM [falling, partial curve].

For `COc1ccc(/C=C/C(=O)NCCCn2ccnc2)cc1`, which AC50 [1] is on record?
The AC50 was 4.61 µM [rising, partial curve, poor fit].

With `Cc1cccc(NC(=O)c2onc3c2CCCC3)n1` as the compound, how does the AC50 [1] read?
Its AC50 is 29.1 µM [falling, single point].

What about the AC50 [2] of the same compound?
Its AC50 is 20.6 µM [falling, partial curve, poor fit].

With `Cc1ccc(NC2=C/C(=N/S(=O)(=O)c3cccs3)c3ccccc3C2=O)cc1` as the compound, how does the AC50 [1] read?
The AC50 was 2.59 µM [falling, full curve, poor fit].

Which results are given for `Cc1csc(NC(=S)Nc2cccc(Cl)c2)n1`?
AC50 [1]: 29.1 µM [falling, single point]; AC50 [2]: 20.6 µM [falling, partial curve]

Which AC50 [1] does the source give for `COc1ccc(C(=O)Nc2ccc(Br)cc2F)cc1S(=O)(=O)N1CCCC1` here?
The AC50 was 18.4 µM [falling, partial curve, poor fit].

With `CCOC(=O)c1cc2c(ccn2-c2ccc(F)cc2)n1CC(=O)N(CC)CC` as the compound, how does the AC50 [1] read?
Its AC50 is 35.5 µM [falling, single point].

Which AC50 [1] does the source give for `CCOC(=O)c1ccc(NC(=O)c2nc[nH]c2C(=O)NCC(=O)OC(C)(C)C)cc1` here?
Its AC50 is 0.501 µM [rising, full curve, poor fit].
